The assay concerns the target Purified recombinant GST-tagged TMIGD1 protein (TMIGD1-GST) (UniProt Q6UXZ0). In words: pull-down; TMIGD1-GST on Glutathione Agarose (4°C, 2 h), then incubated with BANF1-Flag at 4°C for 2 h; washed five times; eluate analysed by western blot; both purified.

Sequences of proteins named here, by UniProt entry; tags and fusion partners are left off. A change or cut given only in a name is not applied to a line headed by its entry.
UniProt Q6UXZ0: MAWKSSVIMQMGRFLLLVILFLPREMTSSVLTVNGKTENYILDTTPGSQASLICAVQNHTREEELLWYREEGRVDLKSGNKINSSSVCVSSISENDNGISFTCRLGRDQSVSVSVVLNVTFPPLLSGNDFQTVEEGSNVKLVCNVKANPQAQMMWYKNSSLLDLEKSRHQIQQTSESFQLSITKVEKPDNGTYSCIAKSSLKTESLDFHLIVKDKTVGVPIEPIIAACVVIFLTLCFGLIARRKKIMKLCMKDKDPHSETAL

These are yes or no findings as the source states them, for the method shown. A result given as binding can be weak or reduced; the word gives no strength. Tags and fused reporters may be left off the sequences shown.

B1: FLAG-tagged BANF1 protein (BANF1-Flag) (protein, UniProt O75531 1-89)
chain: MTTSQKHRDFVAEPMGEKPVGSLAGIGEVLGKKLEERGFDKAYVVLGQFLVLKKDEDLFREWLKDTCGANAKQSRDCFGCLREWCDAFL
In the case of B1, the binding entry is recorded as “binds”.

Values taken from article PMC10403950.
